Laboratory results: paper PMC7502373
These are yes or no findings as the source states them, for the method shown. Binding seen in cells or lysates may run through a third protein.

Chains of the proteins cited; added tags and fusions are not shown.
UniProt P17325: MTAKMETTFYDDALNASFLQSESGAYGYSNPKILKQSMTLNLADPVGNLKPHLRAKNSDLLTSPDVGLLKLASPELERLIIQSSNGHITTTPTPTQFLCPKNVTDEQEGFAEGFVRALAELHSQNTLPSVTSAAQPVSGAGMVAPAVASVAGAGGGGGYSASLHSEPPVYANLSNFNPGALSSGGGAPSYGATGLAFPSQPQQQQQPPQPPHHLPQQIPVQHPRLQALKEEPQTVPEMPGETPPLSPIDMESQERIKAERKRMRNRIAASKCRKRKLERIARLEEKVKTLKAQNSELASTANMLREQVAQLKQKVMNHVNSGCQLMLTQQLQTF

B1: JunB (protein, UniProt P24898 1-344)
chain: MCTKMEQPFYHDDSYAAAGYGRSPGSLSLHDYKLLKPTLALNLADPYRGLKGPGARGPGPEGSGAGSYFSGQGSDTGASLKLASTELERLIVPNSNGVITTTPTPPGQYFYPRGGGSGGGTGGGVTEEQEGFADGFVKALDDLHKMNHVTPPNVSLGASGGPQAGPGGVYAGPEPPPVYTNLSSYSPASAPSGGSGTAVGTGSSYPTATISYLPHAPPFAGGHPAQLGLSRGASAFKEEPQTVPEARSRDATPPVSPINMEDQERIKVERKRLRNRLAATKCRKRKLERIARLEDKVKTLKAENAGLSSAAGLLREQVAQLKQKVMTHVSNGCQLLLGVKGHAF
B2: JunD (protein, UniProt P52909 1-341)
chain: METPFYGEEALSGLAAGASSVAGAAGAPGGGGFAPPGRAFPGAPPTSSMLKKDALTLSLAEQGAAGLKPGSATAPSALRPDGAPDGLLASPDLGLLKLASPELERLIIQSNGLVTTTPTSTQFLYPKVAASEEQEFAEGFVKALEDLHKQSQLGAATAATSGAPAPPAPADLAATPGATETPVYANLSSFAGGAGPPGGAATVAFAAEPVPFPPPPGALGPPPPPHPPRLAALKDEPQTVPDVPSFGDSPPLSPIDMDTQERIKAERKRLRNRIAASKCRKRKLERISRLEEKVKTLKSQNTELASTASLLREQVAQLKQKVLSHVNSGCQLLPQHQVPAY

Biological target: c-Jun (rat (endogenous in primary cortical neurons)) (UniProt P17325)
Assay: co-IP; c-Jun immunoprecipitated (c-Jun antibody 1:50, overnight 4 °C, Protein G Sepharose) from RIPA lysates of rat cortical neurons treated 1 h with DEM (100 μM, oxidative stress); western blot

| Binder | binding |
| --- | --- |
| B1 | no binding |
| B2 | no binding |
